Source: patent US20190367617A1
No constants are given. Whether binding was seen depends on the method and setting. Some entries that bind do so weakly or less than the wild type.

Chains of the proteins cited; added tags and fusions are not shown. Lines headed by an entry give the natural chain unless they say otherwise; changes in a name come on top.
UniProt Q15116: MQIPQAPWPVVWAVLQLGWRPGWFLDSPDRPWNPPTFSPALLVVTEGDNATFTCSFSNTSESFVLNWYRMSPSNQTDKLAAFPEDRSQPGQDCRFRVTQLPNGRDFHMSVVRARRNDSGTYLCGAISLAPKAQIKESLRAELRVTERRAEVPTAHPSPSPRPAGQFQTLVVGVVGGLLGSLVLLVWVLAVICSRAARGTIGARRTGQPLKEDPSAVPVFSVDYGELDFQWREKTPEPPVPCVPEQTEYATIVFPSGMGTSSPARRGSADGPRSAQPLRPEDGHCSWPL

Assays:
[1] = biological target: PD-1 overexpressed on the surface of CHO cells (Homo sapiens (Human)) (UniProt Q15116); test: flow cytometry on PD-1-overexpressing CHO cells (figure legend)
[2] = biological target: PD-1 overexpressed on the surface of CHO cells (Homo sapiens (Human)) (UniProt Q15116); test: flow cytometry on PD-1-overexpressing CHO cells, FITC goat anti-human IgG
[3] = biological target: PD-1 overexpressed on the surface of CHO cells (Homo sapiens (Human)) (UniProt Q15116); test: flow cytometry on PD-1-overexpressing CHO cells, FITC anti-human IgG

binding [1]: binds
binding [2]: binds
binding [3]: binds
B1: humanized antibody AB12M3 (antibody, V domains shown)
VH: EVQLVESGGGLVQPGGSLRLSCAASGFTFSSYGMSWVRQAPGKGLEWVATISGGGRDTYYPDSVKGRFTISRDNAKNNLYLQMNSLRAEDTALYYCARQKDTSWFVHWGQGTLVTVSS
VL: EIVLTQSPATLSLSPGERATLSCRASESVDDYGISFMNWFQQKPGQAPKLLIYVASNQGSGVPARFSGSGSGTDFSLTISSLEPDDTAMYFCQQSKEVPWTFGGGTKVEIK
